Measured values reported in PubChem BioAssay AID504648 (National Center for Advancing Translational Sciences (NCATS), 2011).
Where “and” joins values, the source holds several entries; their conditions need not be identical. Identical values can stand only once. Among all 390,000 compounds or so, about 610 (0.16%) were called active. This list was built around the results that the source calls inconclusive (neither active nor inactive); the mix of calls is not that of the screen. The call rests on the fitted dose curve; in most records, active means well fitted inhibition curve with a large enough effect; inconclusive means small, poorly fitted or top-dose-only effect, or effect the other way, or another doubt; inactive means no such curve, though single readings can be large or run the other way. Potencies of inconclusive entries are doubtful fits and often do not repeat.

Assay: Nrf2 qHTS screen for inhibitors: counterscreen for cytotoxicity
Conditions: A549 ARE-Fluc cells, CellTiter-Fluor viability, 18-24 h; series mostly up to 46 µM
Outline: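 A549 ARE-Fluc cells in 5% FBS OPTI-MEM, 5000 cells/well, rested 2 h then exposed to compounds in concentration-response for 18-24 h at 37 °C. Viability by CellTiter-Fluor fluorescence (Ex 405/Em 525) after 30 min; luciferase luminescence (BugLite, 15 min, RT) read afterwards.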
Potency means the concentration at half of the fitted maximal effect.

| SMILES | Potency |
| --- | --- |
| Brc1ccc(Oc2cc(Br)c(Br)cc2Br)c(Br)c1 | inactive |
| CC(C)CCn1c(=O)c(C(=O)Nc2ccccc2S(N)(=O)=O)c(O)c2ccccc21 | inconclusive: 23.1 µM [falling, partial curve, poor fit] |
| COc1cc(/C=C(/C)[N+](=O)[O-])ccc1OCc1ccccc1Cl | inactive |
| N=C1c2ccccc2CN1NC(=O)c1ccco1 | inconclusive: 23.1 µM [activator, partial curve, poor fit] |
| CC(C)OP(=O)(OC(C)C)C(Nc1ccc([N+](=O)[O-])cc1)c1cccc([N+](=O)[O-])c1 (configuration not stated) | inconclusive: 25.9 µM [falling, partial curve, poor fit] |
| CC1=NCCc2c1[nH]c1cc(O)ccc21 | inconclusive: 23.1 µM [activator, partial curve] |
| CC1(C)CN=C(Nc2ccc(F)c(F)c2)S1 | inactive |
| Cc1cccc2c1=NC(=O)/C(=C/c1c(O)[nH]c(=O)[nH]c1=O)C=2 | inactive |
| CCCC1(CCC)C(=O)NC(=NCc2ccccc2)NC1=O | inconclusive: 20.6 µM [falling, single point] |
| Cc1cc(/C=C2\C(=O)NC(=O)N(c3cccc(F)c3)C2=O)c(C)n1-c1ccc(C(=O)O)c(Cl)c1 | inactive |
| O=C1NC2C(O)C(O)C(O)C(O)C2c2cc3c(c(O)c21)OCO3 (configuration not stated) | active: 1.16 µM |
| Cc1cc(C)cc(NC(=S)NC2CC3CCCC(C2)N3Cc2cccs2)c1 (configuration not stated) | inconclusive: 23.1 µM [falling, single point] |
| O=C(Nc1ccc(F)c(Cl)c1)N(Cc1ccc2c(c1)OCO2)C1CCN(Cc2ccccc2)CC1 | inconclusive: 29.1 µM [falling, single point] |
| COC(=O)C1=C(c2ccc(F)cc2OCc2ccccc2)C[C@@H]2CC[C@H]1N2C(=O)NCc1ccccc1 | inconclusive: 29.1 µM [falling, partial curve, poor fit] |
| CCNC(=O)[C@H]1O[C@@H](n2cnc3c(N)ncnc32)[C@H](O)[C@@H]1O | inactive |
| CC(C)N1OC2CC1c1nc3ccccc3n1C2 (configuration not stated) | inactive |
| COc1cc(/C=C2/C(=O)NC(=O)N(c3ccc(C)cc3)C2=O)cc(OC)c1OC | inactive |
| C=C1C(C)C2C(Cc3ccccc3)NC(=O)C23OC(=O)/C=C/C(O)CCCC(C)C/C=C/C3C1O (configuration not stated) | inconclusive: 16.4 µM [falling, partial curve] |
| O=C(CSC1c2ccccc2-c2ccccc21)N/N=C/c1ccccc1O | active: 20.6 µM |
| CCC(C)NC(=O)CCC(=O)OC1O[C@H]2OC3(C)CC[C@H]4[C@H](C)CCC(C1C)C24OO3 (some centres not stated) | inconclusive: 8.2 µM [falling, partial curve] |
| CC(Cc1ccccc1)NCCC(c1ccccc1)c1ccccc1 (configuration not stated) | inactive |

| SMILES | Potency |
| --- | --- |
| CC/C(=C\C=C\[C@@H]1C=C[C@@H]2CCC[C@H]2[C@@H]1C(=O)c1ccc[nH]1)[C@@H]1O[C@@H]([C@@H](C)C(=O)O)CC[C@@H]1C | inconclusive: 16.4 µM [falling, partial curve] |
| C[C@]12CC[C@H](O)C[C@H]1CC[C@@H]1[C@@H]2C[C@@H](O)[C@]2(C)[C@@H](C3=CC(=O)OC3)CC[C@]12O | inconclusive: 1.03 µM [falling, full curve] |
| CN1CCN(c2cc(N3CCNCC3)ccc2[N+](=O)[O-])CC1 | active: 16.4 µM |
| CC12CN3CC(C)(CN(C1)C3c1cccs1)C2 (configuration not stated) | inconclusive: 29.1 µM [falling, partial curve, poor fit] |
| Nc1cccc2c1Cc1cc([N+](=O)[O-])ccc1-2 | inactive |
| Cc1cc(C)cc(N2C(=O)NC(=O)/C(=C\C=C\c3ccco3)C2=O)c1 | inconclusive: 29.1 µM [falling, single point] |
| Cc1c(N=Nc2c(O)[nH]c(=O)[nH]c2=O)c(=O)n(-c2ccccc2)n1C | inconclusive: 29.1 µM [falling, single point] |
| Clc1ccc2c(c1)C(c1ccccc1Cl)=NCc1nnc(N3CCN(CCSc4ccccc4)CC3)n1-2 | inconclusive: 29.1 µM [falling, single point] |
| Cn1cnc([N+](=O)[O-])c1Sc1ccc([N+](=O)[O-])cc1 | inconclusive: 9.2 µM [falling, partial curve] |
| COc1ccc(CC(=O)C2C(=O)N(C)c3ccccc32)cc1OC (configuration not stated) | inconclusive: 2.59 µM [activator, partial curve, poor fit] |
| C=C1[C@@H](C)[C@H]2[C@H](Cc3ccccc3)NC(=O)[C@]23OC(=O)/C=C/[C@H](O)CCC[C@@H](C)C/C=C/[C@H]3[C@@H]1O | inconclusive: 5.8 µM [falling, full curve] and inconclusive: 3.66 µM [falling, full curve] |
| C=C(C)CSc1nnc([C@@H](N)Cc2c[nH]c3ccccc23)o1 | inactive |
| O=C(N/N=C/c1c(O)n(C2CCCCC2)c(=S)[nH]c1=O)c1ccccc1O | inactive |
| ClC1=C(Cl)C(Cl)=C(Cl)C1=C/C=C/c1ccccc1 | inconclusive: 18.4 µM [falling, single point] |
| COc1cc([C@@H]2c3cc4c(c(O)c3C[C@H]3COC(=O)[C@@H]32)OCO4)cc(OC)c1OC | inactive |
| O=C(Nc1ccc(Cl)cc1)Nc1ccc(Cl)c(Cl)c1 | inconclusive: 29.1 µM [falling, single point] |
| Cc1ccc(NC(=O)CN2C(=O)CN=C(c3ccccc3)c3ccccc32)cc1Cl | inconclusive: 29.1 µM [falling, single point] |
| Cc1ccccc1-n1c(-c2ccc([N+](=O)[O-])cc2)nc2ccccc2c1=O | inconclusive: 6.51 µM [falling, partial curve, poor fit] |
| Cc1c(-c2ccc(Br)cc2)c(=O)oc2ccc(OC(=O)N3CCOCC3)cc12 | inconclusive: 25.9 µM [falling, partial curve, poor fit] |
| Cc1c2ccncc2c(C)c2c1[nH]c1ccccc12 | inconclusive: 23.1 µM [falling, single point] |
| O=C1NC(=O)N(c2ccccc2)C(=O)/C1=C/C=C/c1ccco1 | inconclusive: 25.9 µM [falling, single point] |
